This experiment has as its target T1, Suppressor of fused homolog (SUFU) (human (endogenous in HEK-293)) (UniProt Q9UMX1).
T1 sequence: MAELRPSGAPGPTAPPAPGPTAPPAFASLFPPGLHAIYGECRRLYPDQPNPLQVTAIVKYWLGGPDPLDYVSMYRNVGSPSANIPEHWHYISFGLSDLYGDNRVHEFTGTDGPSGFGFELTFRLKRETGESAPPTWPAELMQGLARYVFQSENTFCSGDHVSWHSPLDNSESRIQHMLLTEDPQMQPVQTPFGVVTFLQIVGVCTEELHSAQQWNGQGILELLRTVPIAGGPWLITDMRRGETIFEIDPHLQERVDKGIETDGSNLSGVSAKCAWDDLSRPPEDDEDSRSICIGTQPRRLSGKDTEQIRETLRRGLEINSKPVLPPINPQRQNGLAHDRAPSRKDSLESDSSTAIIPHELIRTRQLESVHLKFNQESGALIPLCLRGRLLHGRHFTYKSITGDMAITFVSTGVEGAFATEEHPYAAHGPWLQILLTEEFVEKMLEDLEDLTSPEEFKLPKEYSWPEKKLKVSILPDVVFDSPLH
Kind of experiment: co-IP; SUFU antibody (C81H7) and Protein G Dynabeads on 500 ug lysate of HEK-293 cells stably expressing FLAG constructs, cells treated with MG-132 10 uM for 6 h; IP buffer 1% NP-40, 50 mM Tris-HCl pH 8.0, 150 mM NaCl; 4 C overnight; blot with anti-FLAG M2 and SUFU antibodies.

Here are results for one substance from publication PMC6940380.

These are yes or no findings as the source states them, for the method shown. Binding seen in cells or lysates may run through a third protein. Some binding calls cover weakened binding; strength is not graded here. Where a sequence is shown, tags or fusion partners need not be part of it.

In the case of “wild-type GLI2 (GLI Family Zinc Finger 2), N-terminal FLAG tag (from UniProt P10070-5 1-1586)”, the binding entry was “binds”.
